# At least one compound was matched to its structure with a doubt left.
# Tested on: caspase-11
# Assay: Non-canonical inflammasome pathway, caspase-11 immunoblot in LPS treated BMDMs
# Assay type: cell-based, mouse
# Details: BMDMs treated with LPS 4 h
compound,measurement,value
"CCCC(=O)O [butyrate, reference compound]",caspase-11 activation,neither butyrate nor BHB blocks

# Source: patent US20180008629A1, “Compositions and Methods for Treating NLRP3 Inflammasome-Related Diseases and Disorders” (priority 2015, published 2018)
